The supplement of paper PMC5355238
Counter-ions that a name gives are not always drawn. This is one part of the list. Most entries show no effect beyond the scatter of the controls.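 Reh is a human leukemia cell line; the read-out is the median γH2AX antibody signal in S-phase cells by flow cytometry, with the score counting standard deviations from the median difference of each paired set of plates. Scores above 2.5 were called candidate hits, while scores below -2 mark compounds that lowered the MK1775-induced damage.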

The compounds below were run on Reh (assay: Z' of S-phase gammaH2AX difference (drug + MK1775 minus drug alone) (Z-score); higher = stronger synergistic S-phase DNA damage with MK1775). Conditions: MK1775 concentration 400 nM; first compound 10 µM; 4 h.

Structure (SMILES) | Z' of S-phase gammaH2AX difference (Z-score)
NC(=O)CN1CC(O)CC1=O (stereo unspecified) [Oxiracetam] + C=CCn1c(=O)c2cnc(Nc3ccc(N4CCN(C)CC4)cc3)nc2n1-c1cccc(C(C)(C)O)n1 [MK1775] | inactive: -0.606
CO[C@H]1CC=C2CCN3CCC4=C(CC(=O)OC4)[C@]23C1 [Dihydro-beta-erythroidine hydrobromide] + C=CCn1c(=O)c2cnc(Nc3ccc(N4CCN(C)CC4)cc3)nc2n1-c1cccc(C(C)(C)O)n1 [MK1775] | inactive: 0.989
COc1cc(C=C(C#N)C#N)cc(O)c1O [Tyrphostin AG 34] + C=CCn1c(=O)c2cnc(Nc3ccc(N4CCN(C)CC4)cc3)nc2n1-c1cccc(C(C)(C)O)n1 [MK1775] | inactive: -0.323
C[N+]1(C)CCOC(O)(c2ccc(-c3ccc(C4(O)C[N+](C)(C)CCO4)cc3)cc2)C1 (stereo unspecified) [Hemicholinium-3] + C=CCn1c(=O)c2cnc(Nc3ccc(N4CCN(C)CC4)cc3)nc2n1-c1cccc(C(C)(C)O)n1 [MK1775] | inactive: 1.81
COc1ccc(-n2nc(C(F)(F)F)cc2-c2ccc(Cl)cc2)cc1 + C=CCn1c(=O)c2cnc(Nc3ccc(N4CCN(C)CC4)cc3)nc2n1-c1cccc(C(C)(C)O)n1 [MK1775] | inactive: -0.382
Nc1ccncc1 [4-Aminopyridine] + C=CCn1c(=O)c2cnc(Nc3ccc(N4CCN(C)CC4)cc3)nc2n1-c1cccc(C(C)(C)O)n1 [MK1775] | inactive: 0.247
CCS(=O)(=O)Nc1cccc(C(=C2CCCCC2)c2cnc[nH]2)c1 + C=CCn1c(=O)c2cnc(Nc3ccc(N4CCN(C)CC4)cc3)nc2n1-c1cccc(C(C)(C)O)n1 [MK1775] | inactive: -0.0802
O=C(O)CCCc1ccc(N(CCCl)CCCl)cc1 [Chlorambucil] + C=CCn1c(=O)c2cnc(Nc3ccc(N4CCN(C)CC4)cc3)nc2n1-c1cccc(C(C)(C)O)n1 [MK1775] | inactive: -0.357
NCC(O)c1cc(O)c(O)cc1F (stereo unspecified) [6-Fluoronorepinephrine hydrochloride] + C=CCn1c(=O)c2cnc(Nc3ccc(N4CCN(C)CC4)cc3)nc2n1-c1cccc(C(C)(C)O)n1 [MK1775] | inactive: -0.444
Cc1[nH]c2ccc(O)cc2c1CCN [2-Methyl-5-hydroxytryptamine maleate] + C=CCn1c(=O)c2cnc(Nc3ccc(N4CCN(C)CC4)cc3)nc2n1-c1cccc(C(C)(C)O)n1 [MK1775] | inactive: 0.999
C=CCN1CCc2cccc3c2[C@H]1Cc1ccc(O)c(O)c1-3 [R(-)-N-Allylnorapomorphine hydrobromide] + C=CCn1c(=O)c2cnc(Nc3ccc(N4CCN(C)CC4)cc3)nc2n1-c1cccc(C(C)(C)O)n1 [MK1775] | inactive: 1.6
COc1ccc(C(=O)N2CCCC2=O)cc1 [Aniracetam] + C=CCn1c(=O)c2cnc(Nc3ccc(N4CCN(C)CC4)cc3)nc2n1-c1cccc(C(C)(C)O)n1 [MK1775] | inactive: -0.14
CCCCCCCCCCCCCC(=O)O[C@@H]1[C@@H](C)[C@@]2(O)[C@@H](C=C(CO)C[C@]3(O)C(=O)C(C)=C[C@@H]23)[C@@H]2C(C)(C)[C@]12OC(C)=O [Phorbol 12-myristate 13-acetate] + C=CCn1c(=O)c2cnc(Nc3ccc(N4CCN(C)CC4)cc3)nc2n1-c1cccc(C(C)(C)O)n1 [MK1775] | inactive: 0.0728
C=CCN1CC[C@]23c4c5ccc(O)c4O[C@H]2/C(=N/NC(=O)c2ccccc2)CC[C@@]3(O)[C@H]1C5 [Naloxone benzoylhydrazone] + C=CCn1c(=O)c2cnc(Nc3ccc(N4CCN(C)CC4)cc3)nc2n1-c1cccc(C(C)(C)O)n1 [MK1775] | inactive: 0.752
O=c1[nH]c2ccccc2n1CCCN1CCC(n2c(=O)[nH]c3cc(Cl)ccc32)CC1 [Domperidone] + C=CCn1c(=O)c2cnc(Nc3ccc(N4CCN(C)CC4)cc3)nc2n1-c1cccc(C(C)(C)O)n1 [MK1775] | inactive: 1.64
CC1=C[C@@H]2c3cccc4[nH]cc(c34)C[C@H]2N(C)C1 [Agroclavine] + C=CCn1c(=O)c2cnc(Nc3ccc(N4CCN(C)CC4)cc3)nc2n1-c1cccc(C(C)(C)O)n1 [MK1775] | inactive: 0.247
S=C(NC1CCCCC1)N1CCC(c2cnc[nH]2)CC1 [Thioperamide maleate] + C=CCn1c(=O)c2cnc(Nc3ccc(N4CCN(C)CC4)cc3)nc2n1-c1cccc(C(C)(C)O)n1 [MK1775] | inactive: -0.315
CCN(CC)C(=O)NC1CC2c3cccc4[nH]cc(c34)CC2N(C)C1 (stereo not drawn) [R(+)-Terguride] + C=CCn1c(=O)c2cnc(Nc3ccc(N4CCN(C)CC4)cc3)nc2n1-c1cccc(C(C)(C)O)n1 [MK1775] | inactive: -0.278

Laid out differently: entries from further up

| Structure (SMILES) | Z' of S-phase gammaH2AX difference (Z-score) |
| --- | --- |
| O=C(O)CCCc1ccc(N(CCCl)CCCl)cc1 [Chlorambucil] + C=CCn1c(=O)c2cnc(Nc3ccc(N4CCN(C)CC4)cc3)nc2n1-c1cccc(C(C)(C)O)n1 [MK1775] | inactive: -0.357 |
| NCC(O)c1cc(O)c(O)cc1F (stereo unspecified) [6-Fluoronorepinephrine hydrochloride] + C=CCn1c(=O)c2cnc(Nc3ccc(N4CCN(C)CC4)cc3)nc2n1-c1cccc(C(C)(C)O)n1 [MK1775] | inactive: -0.444 |
| Cc1[nH]c2ccc(O)cc2c1CCN [2-Methyl-5-hydroxytryptamine maleate] + C=CCn1c(=O)c2cnc(Nc3ccc(N4CCN(C)CC4)cc3)nc2n1-c1cccc(C(C)(C)O)n1 [MK1775] | inactive: 0.999 |
| C=CCN1CCc2cccc3c2[C@H]1Cc1ccc(O)c(O)c1-3 [R(-)-N-Allylnorapomorphine hydrobromide] + C=CCn1c(=O)c2cnc(Nc3ccc(N4CCN(C)CC4)cc3)nc2n1-c1cccc(C(C)(C)O)n1 [MK1775] | inactive: 1.6 |
| COc1ccc(C(=O)N2CCCC2=O)cc1 [Aniracetam] + C=CCn1c(=O)c2cnc(Nc3ccc(N4CCN(C)CC4)cc3)nc2n1-c1cccc(C(C)(C)O)n1 [MK1775] | inactive: -0.14 |
| CCCCCCCCCCCCCC(=O)O[C@@H]1[C@@H](C)[C@@]2(O)[C@@H](C=C(CO)C[C@]3(O)C(=O)C(C)=C[C@@H]23)[C@@H]2C(C)(C)[C@]12OC(C)=O [Phorbol 12-myristate 13-acetate] + C=CCn1c(=O)c2cnc(Nc3ccc(N4CCN(C)CC4)cc3)nc2n1-c1cccc(C(C)(C)O)n1 [MK1775] | inactive: 0.0728 |
| C=CCN1CC[C@]23c4c5ccc(O)c4O[C@H]2/C(=N/NC(=O)c2ccccc2)CC[C@@]3(O)[C@H]1C5 [Naloxone benzoylhydrazone] + C=CCn1c(=O)c2cnc(Nc3ccc(N4CCN(C)CC4)cc3)nc2n1-c1cccc(C(C)(C)O)n1 [MK1775] | inactive: 0.752 |
| O=c1[nH]c2ccccc2n1CCCN1CCC(n2c(=O)[nH]c3cc(Cl)ccc32)CC1 [Domperidone] + C=CCn1c(=O)c2cnc(Nc3ccc(N4CCN(C)CC4)cc3)nc2n1-c1cccc(C(C)(C)O)n1 [MK1775] | inactive: 1.64 |
| CC1=C[C@@H]2c3cccc4[nH]cc(c34)C[C@H]2N(C)C1 [Agroclavine] + C=CCn1c(=O)c2cnc(Nc3ccc(N4CCN(C)CC4)cc3)nc2n1-c1cccc(C(C)(C)O)n1 [MK1775] | inactive: 0.247 |
| S=C(NC1CCCCC1)N1CCC(c2cnc[nH]2)CC1 [Thioperamide maleate] + C=CCn1c(=O)c2cnc(Nc3ccc(N4CCN(C)CC4)cc3)nc2n1-c1cccc(C(C)(C)O)n1 [MK1775] | inactive: -0.315 |

Continued:

Structure (SMILES) | Z' of S-phase gammaH2AX difference (Z-score)
CCN(CC)C(=O)N[C@H]1C=C2c3cccc4[nH]cc(c34)C[C@H]2N(C)C1 [R(+)-Lisuride hydrogen maleate] + C=CCn1c(=O)c2cnc(Nc3ccc(N4CCN(C)CC4)cc3)nc2n1-c1cccc(C(C)(C)O)n1 [MK1775] | inactive: 0.301
NC(N)=NOCC[C@H](N)C(=O)O [L-Canavanine sulfate] + C=CCn1c(=O)c2cnc(Nc3ccc(N4CCN(C)CC4)cc3)nc2n1-c1cccc(C(C)(C)O)n1 [MK1775] | inactive: -0.00334
COC[C@H]1OC(=O)c2coc3c2[C@@]1(C)C1=C(C3=O)[C@@H]2CCC(=O)[C@@]2(C)C[C@H]1OC(C)=O [Wortmannin from Penicillium funiculosum] + C=CCn1c(=O)c2cnc(Nc3ccc(N4CCN(C)CC4)cc3)nc2n1-c1cccc(C(C)(C)O)n1 [MK1775] | inactive: -1.96
Clc1cnc(Oc2ccc(Oc3ncc(Cl)cc3Cl)cc2)c(Cl)c1 + C=CCn1c(=O)c2cnc(Nc3ccc(N4CCN(C)CC4)cc3)nc2n1-c1cccc(C(C)(C)O)n1 [MK1775] | inactive: -0.237
CNCCc1ccc(O)c(O)c1 [N-Methyldopamine hydrochloride] + C=CCn1c(=O)c2cnc(Nc3ccc(N4CCN(C)CC4)cc3)nc2n1-c1cccc(C(C)(C)O)n1 [MK1775] | inactive: -0.483
COc1ccc2c(c1)[C@]13CCCC[C@@H]1[C@H](C2)N(C)CC3 [Dextromethorphan hydrobromide monohydrate] + C=CCn1c(=O)c2cnc(Nc3ccc(N4CCN(C)CC4)cc3)nc2n1-c1cccc(C(C)(C)O)n1 [MK1775] | inactive: 1.32
Cc1ccccc1-n1c(Cn2cnc3c(N)ncnc32)nc2cccc(C)c2c1=O + C=CCn1c(=O)c2cnc(Nc3ccc(N4CCN(C)CC4)cc3)nc2n1-c1cccc(C(C)(C)O)n1 [MK1775] | inactive: -0.289
CN(N=O)c1ccc(O)c(O)c1 [Me-3,4-dephostatin] + C=CCn1c(=O)c2cnc(Nc3ccc(N4CCN(C)CC4)cc3)nc2n1-c1cccc(C(C)(C)O)n1 [MK1775] | inactive: -0.223
CCCN1CCC[C@@H]2Cc3nc(N)ncc3C[C@H]21 [Quinelorane dihydrochloride] + C=CCn1c(=O)c2cnc(Nc3ccc(N4CCN(C)CC4)cc3)nc2n1-c1cccc(C(C)(C)O)n1 [MK1775] | inactive: 0.883
C[C@]12CC[C@@H](O)C[C@@H]1CC[C@@H]1[C@@H]2CC[C@]2(C)C(=O)CC[C@@H]12 [Androsterone] + C=CCn1c(=O)c2cnc(Nc3ccc(N4CCN(C)CC4)cc3)nc2n1-c1cccc(C(C)(C)O)n1 [MK1775] | inactive: -0.174
CC(Cc1ccc(O)cc1)NCC(O)c1cc(O)cc(O)c1 (stereo unspecified) [Fenoterol hydrobromide] + C=CCn1c(=O)c2cnc(Nc3ccc(N4CCN(C)CC4)cc3)nc2n1-c1cccc(C(C)(C)O)n1 [MK1775] | inactive: -0.308
Cn1cnc(CCN)c1 [1-Methylhistamine dihydrochloride] + C=CCn1c(=O)c2cnc(Nc3ccc(N4CCN(C)CC4)cc3)nc2n1-c1cccc(C(C)(C)O)n1 [MK1775] | inactive: 0.456
C1CCc2nnnn2CC1 [Pentylenetetrazole] + C=CCn1c(=O)c2cnc(Nc3ccc(N4CCN(C)CC4)cc3)nc2n1-c1cccc(C(C)(C)O)n1 [MK1775] | inactive: 1.35
CC(C)N(CCC(C(N)=O)(c1ccccc1)c1ccccn1)C(C)C (stereo unspecified) [Disopyramide] + C=CCn1c(=O)c2cnc(Nc3ccc(N4CCN(C)CC4)cc3)nc2n1-c1cccc(C(C)(C)O)n1 [MK1775] | inactive: 0.901
CC(C)N(CCC(C(N)=O)(c1ccccc1)c1ccccn1)C(C)C (stereo unspecified) [Disopyramide phosphate] + C=CCn1c(=O)c2cnc(Nc3ccc(N4CCN(C)CC4)cc3)nc2n1-c1cccc(C(C)(C)O)n1 [MK1775] | inactive: 0.284
N=C(N)NN [Aminoguanidine hydrochloride] + C=CCn1c(=O)c2cnc(Nc3ccc(N4CCN(C)CC4)cc3)nc2n1-c1cccc(C(C)(C)O)n1 [MK1775] | inactive: 0.575
N=C(N)NN [Aminoguanidine hemisulfate] + C=CCn1c(=O)c2cnc(Nc3ccc(N4CCN(C)CC4)cc3)nc2n1-c1cccc(C(C)(C)O)n1 [MK1775] | inactive: -0.281
C=CCN1C[C@H](C)N([C@H](c2ccc(C(=O)N(CC)CC)cc2)c2cccc(OC)c2)C[C@H]1C + C=CCn1c(=O)c2cnc(Nc3ccc(N4CCN(C)CC4)cc3)nc2n1-c1cccc(C(C)(C)O)n1 [MK1775] | inactive: -0.14
